Results reported in paper PMC10646219.
Results are given in words; binding and its absence hold for the method and conditions named. Binding seen in cells or lysates may run through a third protein. Some results given as binding are weak or reduced against the parent protein; the word gives no strength.

Sequences of proteins named here, by UniProt entry; tags and fusion partners are left off.
UniProt Q08857: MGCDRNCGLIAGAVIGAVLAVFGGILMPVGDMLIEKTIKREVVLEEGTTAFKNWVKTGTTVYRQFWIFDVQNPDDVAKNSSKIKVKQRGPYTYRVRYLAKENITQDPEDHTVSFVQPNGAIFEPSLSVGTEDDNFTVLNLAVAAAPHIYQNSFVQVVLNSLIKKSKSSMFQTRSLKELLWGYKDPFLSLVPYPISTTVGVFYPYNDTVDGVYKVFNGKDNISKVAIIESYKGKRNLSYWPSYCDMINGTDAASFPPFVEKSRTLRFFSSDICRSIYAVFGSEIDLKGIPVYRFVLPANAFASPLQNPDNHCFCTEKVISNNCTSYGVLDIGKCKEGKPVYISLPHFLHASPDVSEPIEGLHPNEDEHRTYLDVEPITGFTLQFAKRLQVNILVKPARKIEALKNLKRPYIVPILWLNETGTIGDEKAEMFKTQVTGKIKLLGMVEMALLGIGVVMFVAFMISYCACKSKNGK

Molecular target: CD36 (mouse (endogenous in DC2.4)) (UniProt Q08857)
Experiment: co-IP; endogenous proteins; DC2.4 cells co-cultured 24 h with Scramble- or Arf1-ablated CT26 cells, lysed in NP-40 lysis buffer; supernatants incubated with anti-CD36, anti-TLR2, anti-TLR6 or anti-Rab7 antibody overnight at 4 °C, agarose beads 2 h, washed three times with NP-40 buffer, immunoblotting

B1: TLR6 (receptor, UniProt Q9EPW9 28-795)
chain: FSNELESMVDYSNRNLTHVPKDLPPRTKALSLSQNSISELRMPDISFLSELRVLRLSHNRIRSLDFHVFLFNQDLEYLDVSHNRLQNISCCPMASLRHLDLSFNDFDVLPVCKEFGNLTKLTFLGLSAAKFRQLDLLPVAHLHLSCILLDLVSYHIKGGETESLQIPNTTVLHLVFHPNSLFSVQVNMSVNALGHLQLSNIKLNDENCQRLMTFLSELTRGPTLLNVTLQHIETTWKCSVKLFQFFWPRPVEYLNIYNLTITERIDREEFTYSETALKSLMIEHVKNQVFLFSKEALYSVFAEMNIKMLSISDTPFIHMVCPPSPSSFTFLNFTQNVFTDSVFQGCSTLKRLQTLILQRNGLKNFFKVALMTKNMSSLETLDVSLNSLNSHAYDRTCAWAESILVLNLSSNMLTGSVFRCLPPKVKVLDLHNNRIMSIPKDVTHLQALQELNVASNSLTDLPGCGAFSSLSVLVIDHNSVSHPSEDFFQSCQNIRSLTAGNNPFQCTCELRDFVKNIGWVAREVVEGWPDSYRCDYPESSKGTALRDFHMSPLSCDTVLLTVTIGATMLVLAVTGAFLCLYFDLPWYVRMLCQWTQTRHRARHIPLEELQRNLQFHAFVSYSEHDSAWVKNELLPNLEKDDIRVCLHERNFVPGKSIVENIINFIEKSYKAIFVLSPHFIQSEWCHYELYFAHHNLFHEGSDNLILILLEPILQNNIPSRYHKLRALMAQRTYLEWPTEKGKRGLFWANLRASFIMKLALVNEDDVKT
binding: binds
